The source of these data is article PMC11130711.

Sequences of proteins named here, by UniProt entry; tags and fusion partners are left off.
UniProt Q8R4B8: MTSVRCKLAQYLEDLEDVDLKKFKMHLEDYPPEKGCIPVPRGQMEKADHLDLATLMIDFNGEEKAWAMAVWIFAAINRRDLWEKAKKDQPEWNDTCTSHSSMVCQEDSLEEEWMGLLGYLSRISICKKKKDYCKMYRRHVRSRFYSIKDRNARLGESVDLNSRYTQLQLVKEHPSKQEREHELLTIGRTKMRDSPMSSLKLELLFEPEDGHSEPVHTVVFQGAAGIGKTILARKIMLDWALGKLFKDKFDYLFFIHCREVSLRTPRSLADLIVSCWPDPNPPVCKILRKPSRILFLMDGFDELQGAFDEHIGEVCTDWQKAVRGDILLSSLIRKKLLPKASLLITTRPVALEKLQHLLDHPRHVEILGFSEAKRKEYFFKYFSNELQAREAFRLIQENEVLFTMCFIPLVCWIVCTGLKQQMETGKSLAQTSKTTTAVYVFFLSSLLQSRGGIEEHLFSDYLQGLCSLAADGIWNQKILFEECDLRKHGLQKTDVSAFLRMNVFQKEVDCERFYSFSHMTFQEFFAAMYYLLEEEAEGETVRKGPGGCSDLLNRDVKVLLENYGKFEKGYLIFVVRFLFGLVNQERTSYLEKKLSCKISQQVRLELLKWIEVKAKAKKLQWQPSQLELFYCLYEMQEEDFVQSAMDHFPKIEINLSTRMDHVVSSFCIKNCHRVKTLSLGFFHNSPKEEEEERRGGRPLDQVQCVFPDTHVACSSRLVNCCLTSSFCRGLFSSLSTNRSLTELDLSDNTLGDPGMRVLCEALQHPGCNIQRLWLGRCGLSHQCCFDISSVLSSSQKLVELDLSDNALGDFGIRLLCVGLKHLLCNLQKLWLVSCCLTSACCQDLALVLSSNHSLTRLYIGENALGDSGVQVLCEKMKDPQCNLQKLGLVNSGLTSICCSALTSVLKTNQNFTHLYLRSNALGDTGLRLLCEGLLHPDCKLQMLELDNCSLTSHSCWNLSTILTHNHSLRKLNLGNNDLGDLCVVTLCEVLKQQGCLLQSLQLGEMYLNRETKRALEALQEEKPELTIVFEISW
UniProt Q96P20: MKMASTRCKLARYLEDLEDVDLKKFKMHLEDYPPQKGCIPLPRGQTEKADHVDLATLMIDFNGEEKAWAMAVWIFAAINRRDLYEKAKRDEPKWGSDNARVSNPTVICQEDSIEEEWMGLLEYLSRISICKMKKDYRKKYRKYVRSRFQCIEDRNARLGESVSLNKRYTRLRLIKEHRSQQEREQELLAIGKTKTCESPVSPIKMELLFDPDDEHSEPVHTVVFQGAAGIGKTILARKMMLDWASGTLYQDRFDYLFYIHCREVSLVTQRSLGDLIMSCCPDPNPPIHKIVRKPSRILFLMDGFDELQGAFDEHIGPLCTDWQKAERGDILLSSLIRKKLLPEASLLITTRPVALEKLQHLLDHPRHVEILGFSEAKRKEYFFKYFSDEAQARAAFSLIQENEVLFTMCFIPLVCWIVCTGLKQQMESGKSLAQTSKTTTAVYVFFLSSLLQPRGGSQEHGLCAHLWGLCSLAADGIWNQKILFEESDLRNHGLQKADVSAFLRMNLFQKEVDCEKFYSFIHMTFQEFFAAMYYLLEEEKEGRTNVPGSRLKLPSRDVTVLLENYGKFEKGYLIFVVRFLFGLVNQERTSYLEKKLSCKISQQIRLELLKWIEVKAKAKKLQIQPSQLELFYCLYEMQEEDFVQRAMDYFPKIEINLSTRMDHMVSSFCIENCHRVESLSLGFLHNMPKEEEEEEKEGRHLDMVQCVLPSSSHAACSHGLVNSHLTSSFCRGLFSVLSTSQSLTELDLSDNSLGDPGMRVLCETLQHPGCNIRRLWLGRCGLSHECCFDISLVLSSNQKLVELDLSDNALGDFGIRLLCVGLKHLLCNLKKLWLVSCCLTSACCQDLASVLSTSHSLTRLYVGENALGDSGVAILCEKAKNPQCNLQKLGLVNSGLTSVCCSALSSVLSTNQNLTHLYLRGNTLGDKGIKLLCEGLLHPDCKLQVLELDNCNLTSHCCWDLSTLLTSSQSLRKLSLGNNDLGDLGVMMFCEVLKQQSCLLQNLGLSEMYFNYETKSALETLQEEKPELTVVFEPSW
UniProt Q9ULZ3: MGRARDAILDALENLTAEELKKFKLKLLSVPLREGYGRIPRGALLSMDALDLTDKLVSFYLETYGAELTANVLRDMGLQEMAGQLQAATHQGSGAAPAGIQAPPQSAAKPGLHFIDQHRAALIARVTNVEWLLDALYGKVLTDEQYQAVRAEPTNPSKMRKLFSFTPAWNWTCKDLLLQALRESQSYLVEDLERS

No constants are given. Whether binding was seen depends on the method and setting. In cells and extracts the contact can be indirect. Some entries that bind do so weakly or less than the wild type.

For test [1], the target named is Flag-NLRP3 (mouse NLRP3, wild type) (mouse) (UniProt Q8R4B8). In words: co-IP; Flag-NLRP3 and ASC expressed in HEK293T cells (WT or ZDHHC7 KO; DMSO or 2-BP for 12 h); RIPA lysate; IP with anti-FLAG M2 agarose, immunoblot.
The target of test [2] is NLRP3 (NOD-like receptor protein 3), endogenous in mouse BMDMs (mouse (endogenous in BMDMs)) (UniProt Q8R4B8). In words: FRET or BRET; FRET assay in LPS-primed BMDMs (Figure S1B); its methods were not shown.
Test [3] addresses NLRP3, endogenous in human THP-1 cells (human (endogenous in THP-1)) (UniProt Q96P20). In words: co-IP; endogenous proteins; THP-1 cells resting, PMA-differentiated, or treated with LPS and nigericin; RIPA lysate; IP of NLRP3 with protein A/G agarose, immunoblot for ZDHHC7.

On to “ASC (apoptosis-associated speck-like protein containing a CARD), human, expressed in HEK293T cells (from UniProt Q9ULZ3 1-195)”, for which, in test [1], the binding entry was “binds”.

B1: ZDHHC7 (zinc finger DHHC-type palmitoyl transferase 7), endogenous in mouse BMDMs (enzyme, UniProt Q91WU6 1-308)
chain: MQPSGHRLRDIEHHPLLTDNDNYDSASSSSSETDMADRVWFIRDGCGMVCAVMTWLLVVYADFVVTFVMLLPSKDFWYSVVNGVLFNCLAVLALSSHLRTMLTDPGAVPKGNATKEYMESLQLKPGEVIYKCPKCCCIKPERAHHCSICKRCIRKMDHHCPWVNNCVGEKNQRFFVLFTMYIALSSVHALILCGLQFISCVRGQWTECSDFSPPITVILLVFLCLEGLLFFTFTAVMFGTQIHSICNDETEIERLKSEKPTWERRLRWEGMKSVFGGPPSLLWMNPFVGFRLRRLQMRTRKGGPEFSV
B1: in test [2], the binding result is given as “binds”.

B2: ZDHHC7, endogenous in human THP-1 cells (enzyme, UniProt Q9NXF8 1-308)
chain: MQPSGHRLRDVEHHPLLAENDNYDSSSSSSSEADVADRVWFIRDGCGMICAVMTWLLVAYADFVVTFVMLLPSKDFWYSVVNGVIFNCLAVLALSSHLRTMLTDPGAVPKGNATKEYMESLQLKPGEVIYKCPKCCCIKPERAHHCSICKRCIRKMDHHCPWVNNCVGEKNQRFFVLFTMYIALSSVHALILCGFQFISCVRGQWTECSDFSPPITVILLIFLCLEGLLFFTFTAVMFGTQIHSICNDETEIERLKSEKPTWERRLRWEGMKSVFGGPPSLLWMNPFVGFRFRRLPTRPRKGGPEFSV
As for B2, in test [3], the binding entry is recorded as “binds”.
